Assay [1] concerns the target apoptotic peptidase activating factor 1 (mouse (endogenous in MEF)) (UniProt O88879). The assay can be described thus: co-IP; apoptosome complexes in bax-/- bak-/- MEF cells transfected with WT MCL-1ES; immunoprecipitation and western blot. For orientation: Immunoblotting shows a protein as a band on a membrane.
Assay [2] shares this target. The assay can be described thus: condition: only cells transfected with BH3M MCL-1ES instead of WT MCL-1ES; co-IP; apoptosome complexes in bax-/- bak-/- MEF cells transfected with BH3M MCL-1ES; immunoprecipitation and western blot.

Chains of the proteins cited; added tags and fusions are not shown.
UniProt O88879: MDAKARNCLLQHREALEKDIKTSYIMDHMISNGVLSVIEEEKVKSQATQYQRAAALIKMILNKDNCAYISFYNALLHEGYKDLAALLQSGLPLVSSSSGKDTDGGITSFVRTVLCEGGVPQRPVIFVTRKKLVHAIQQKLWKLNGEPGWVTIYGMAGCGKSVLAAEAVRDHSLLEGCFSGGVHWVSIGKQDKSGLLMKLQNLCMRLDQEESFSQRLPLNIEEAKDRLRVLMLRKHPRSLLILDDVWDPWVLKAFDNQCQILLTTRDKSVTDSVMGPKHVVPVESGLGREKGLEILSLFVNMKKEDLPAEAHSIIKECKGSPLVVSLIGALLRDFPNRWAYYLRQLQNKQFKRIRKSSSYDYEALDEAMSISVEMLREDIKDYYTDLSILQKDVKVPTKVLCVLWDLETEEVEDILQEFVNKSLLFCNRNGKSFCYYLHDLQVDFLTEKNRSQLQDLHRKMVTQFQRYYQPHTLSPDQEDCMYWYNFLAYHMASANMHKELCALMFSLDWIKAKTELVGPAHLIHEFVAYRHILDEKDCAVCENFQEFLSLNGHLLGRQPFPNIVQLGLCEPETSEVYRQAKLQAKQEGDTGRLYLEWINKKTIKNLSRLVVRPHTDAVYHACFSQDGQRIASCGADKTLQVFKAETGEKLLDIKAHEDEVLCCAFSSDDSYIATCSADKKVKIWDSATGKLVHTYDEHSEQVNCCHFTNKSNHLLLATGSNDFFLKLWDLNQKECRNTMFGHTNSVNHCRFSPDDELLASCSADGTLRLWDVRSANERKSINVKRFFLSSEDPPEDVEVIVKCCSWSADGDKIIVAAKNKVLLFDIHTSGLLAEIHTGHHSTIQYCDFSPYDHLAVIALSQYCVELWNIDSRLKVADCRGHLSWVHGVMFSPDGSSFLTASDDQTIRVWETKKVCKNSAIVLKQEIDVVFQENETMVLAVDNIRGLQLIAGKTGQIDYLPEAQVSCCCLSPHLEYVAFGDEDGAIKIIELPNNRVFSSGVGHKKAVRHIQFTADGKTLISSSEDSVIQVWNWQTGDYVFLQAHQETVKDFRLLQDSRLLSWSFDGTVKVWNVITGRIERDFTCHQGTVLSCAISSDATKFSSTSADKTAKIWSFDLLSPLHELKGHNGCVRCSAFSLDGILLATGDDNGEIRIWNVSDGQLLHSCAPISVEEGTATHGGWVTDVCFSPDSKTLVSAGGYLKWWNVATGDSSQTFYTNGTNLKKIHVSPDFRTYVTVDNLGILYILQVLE
UniProt P62897: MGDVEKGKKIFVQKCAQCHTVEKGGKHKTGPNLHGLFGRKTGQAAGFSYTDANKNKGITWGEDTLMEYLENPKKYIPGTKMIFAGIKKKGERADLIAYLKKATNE

No constants are given. Whether binding was seen depends on the method and setting. Binding seen in cells or lysates may run through a third protein. Some entries that bind do so weakly or less than the wild type.

Turning to “cytochrome c (from UniProt P62897 1-105)”, the binding entry in assay [1] is on record as “binds”; in assay [2] it was “no binding”.
